From US20170362301A1 (Janssen / Centocor, published 2017)
No constants are given. Whether binding was seen depends on the method and setting. Some results given as binding are weak or reduced against the parent protein; the word gives no strength.

What was measured:
[1] = target: T1, EGFR (form in the assay not stated) (human, UniProt P00533 25-645, limits assumed); assay: ELISA, NEM conjugate
[2] = target: T1, EGFR (form in the assay not stated); assay: summary of the cys scan

Row | binding [1] | Binder | binding [2]
1 | binds | P54AR4-83v2 A3C, NEM conjugate (designed binder, NEM on Cys 3, His-tagged) LPCPKNLVVSEVTEDSARLSWDDPWAFYESFLIQYQESEKVGEAIVLTVPGSERSYDLTGLKPGTEYTVSIYGVHNVYKDTNMRGLPLSAIFTT | –
2 | – | P54AR4-83v2 S10C, NEM conjugate (designed binder, NEM on Cys 10, His-tagged) LPAPKNLVVCEVTEDSARLSWDDPWAFYESFLIQYQESEKVGEAIVLTVPGSERSYDLTGLKPGTEYTVSIYGVHNVYKDTNMRGLPLSAIFTT | binds
3 | – | P54AR4-83v2 S20C, NEM conjugate (designed binder, NEM on Cys 20, His-tagged) LPAPKNLVVSEVTEDSARLCWDDPWAFYESFLIQYQESEKVGEAIVLTVPGSERSYDLTGLKPGTEYTVSIYGVHNVYKDTNMRGLPLSAIFTT | binds
4 | – | P54AR4-83v2 R54C, NEM conjugate (designed binder, NEM on Cys 54, His-tagged) LPAPKNLVVSEVTEDSARLSWDDPWAFYESFLIQYQESEKVGEAIVLTVPGSECSYDLTGLKPGTEYTVSIYGVHNVYKDTNMRGLPLSAIFTT | binds
5 | – | P54AR4-83v2 I45C, NEM conjugate (designed binder, NEM on Cys 45, His-tagged) LPAPKNLVVSEVTEDSARLSWDDPWAFYESFLIQYQESEKVGEACVLTVPGSERSYDLTGLKPGTEYTVSIYGVHNVYKDTNMRGLPLSAIFTT | binds
6 | binds | P54AR4-83v2 N82C, NEM conjugate (designed binder, NEM on Cys 82, His-tagged) LPAPKNLVVSEVTEDSARLSWDDPWAFYESFLIQYQESEKVGEAIVLTVPGSERSYDLTGLKPGTEYTVSIYGVHNVYKDTCMRGLPLSAIFTT | –
7 | – | P54AR4-83v2 V41C, NEM conjugate (designed binder, NEM on Cys 41, His-tagged) LPAPKNLVVSEVTEDSARLSWDDPWAFYESFLIQYQESEKCGEAIVLTVPGSERSYDLTGLKPGTEYTVSIYGVHNVYKDTNMRGLPLSAIFTT | binds
8 | binds | P54AR4-83v2 W25C, NEM conjugate (designed binder, NEM on Cys 25, His-tagged) LPAPKNLVVSEVTEDSARLSWDDPCAFYESFLIQYQESEKVGEAIVLTVPGSERSYDLTGLKPGTEYTVSIYGVHNVYKDTNMRGLPLSAIFTT | –
9 | binds | P54AR4-83v2 K5C, NEM conjugate (designed binder, NEM on Cys 5, His-tagged) LPAPCNLVVSEVTEDSARLSWDDPWAFYESFLIQYQESEKVGEAIVLTVPGSERSYDLTGLKPGTEYTVSIYGVHNVYKDTNMRGLPLSAIFTT | –
10 | – | P54AR4-83v2 S38C, NEM conjugate (designed binder, NEM on Cys 38, His-tagged) LPAPKNLVVSEVTEDSARLSWDDPWAFYESFLIQYQECEKVGEAIVLTVPGSERSYDLTGLKPGTEYTVSIYGVHNVYKDTNMRGLPLSAIFTT | binds
11 | binds | P54AR4-83v2 L7C, NEM conjugate (designed binder, NEM on Cys 7, His-tagged) LPAPKNCVVSEVTEDSARLSWDDPWAFYESFLIQYQESEKVGEAIVLTVPGSERSYDLTGLKPGTEYTVSIYGVHNVYKDTNMRGLPLSAIFTT | –
12 | – | P54AR4-83v2 Q34C, NEM conjugate (designed binder, NEM on Cys 34, His-tagged) LPAPKNLVVSEVTEDSARLSWDDPWAFYESFLICYQESEKVGEAIVLTVPGSERSYDLTGLKPGTEYTVSIYGVHNVYKDTNMRGLPLSAIFTT | binds
13 | – | P54AR4-83v2 S70C, NEM conjugate (designed binder, NEM on Cys 70, His-tagged) LPAPKNLVVSEVTEDSARLSWDDPWAFYESFLIQYQESEKVGEAIVLTVPGSERSYDLTGLKPGTEYTVCIYGVHNVYKDTNMRGLPLSAIFTT | binds
14 | – | P54AR4-83v2 T93C, NEM conjugate (designed binder, NEM on Cys 93, His-tagged) LPAPKNLVVSEVTEDSARLSWDDPWAFYESFLIQYQESEKVGEAIVLTVPGSERSYDLTGLKPGTEYTVSIYGVHNVYKDTNMRGLPLSAIFCT | binds
15 | – | P54AR4-83v2 E11C, NEM conjugate (designed binder, NEM on Cys 11, His-tagged) LPAPKNLVVSCVTEDSARLSWDDPWAFYESFLIQYQESEKVGEAIVLTVPGSERSYDLTGLKPGTEYTVSIYGVHNVYKDTNMRGLPLSAIFTT | binds
16 | – | P54AR4-83v2 L47C, NEM conjugate (designed binder, NEM on Cys 47, His-tagged) LPAPKNLVVSEVTEDSARLSWDDPWAFYESFLIQYQESEKVGEAIVCTVPGSERSYDLTGLKPGTEYTVSIYGVHNVYKDTNMRGLPLSAIFTT | binds
17 | – | P54AR4-83v2 E14C, NEM conjugate (designed binder, NEM on Cys 14, His-tagged) LPAPKNLVVSEVTCDSARLSWDDPWAFYESFLIQYQESEKVGEAIVLTVPGSERSYDLTGLKPGTEYTVSIYGVHNVYKDTNMRGLPLSAIFTT | binds
18 | binds | P54AR4-83v2 Y78C, NEM conjugate (designed binder, NEM on Cys 78, His-tagged) LPAPKNLVVSEVTEDSARLSWDDPWAFYESFLIQYQESEKVGEAIVLTVPGSERSYDLTGLKPGTEYTVSIYGVHNVCKDTNMRGLPLSAIFTT | –

Row | binding [1] | Binder | binding [2]
19 | – | P54AR4-83v2 G60C, NEM conjugate (designed binder, NEM on Cys 60, His-tagged) LPAPKNLVVSEVTEDSARLSWDDPWAFYESFLIQYQESEKVGEAIVLTVPGSERSYDLTCLKPGTEYTVSIYGVHNVYKDTNMRGLPLSAIFTT | binds
20 | – | P54AR4-83v2 T48C, NEM conjugate (designed binder, NEM on Cys 48, His-tagged) LPAPKNLVVSEVTEDSARLSWDDPWAFYESFLIQYQESEKVGEAIVLCVPGSERSYDLTGLKPGTEYTVSIYGVHNVYKDTNMRGLPLSAIFTT | binds
21 | – | P54AR4-83v2 L88C, NEM conjugate (designed binder, NEM on Cys 88, His-tagged) LPAPKNLVVSEVTEDSARLSWDDPWAFYESFLIQYQESEKVGEAIVLTVPGSERSYDLTGLKPGTEYTVSIYGVHNVYKDTNMRGLPCSAIFTT | binds
22 | – | P54AR4-83v2 D15C, NEM conjugate (designed binder, NEM on Cys 15, His-tagged) LPAPKNLVVSEVTECSARLSWDDPWAFYESFLIQYQESEKVGEAIVLTVPGSERSYDLTGLKPGTEYTVSIYGVHNVYKDTNMRGLPLSAIFTT | binds
23 | – | P54AR4-83v2 K62C, NEM conjugate (designed binder, NEM on Cys 62, His-tagged) LPAPKNLVVSEVTEDSARLSWDDPWAFYESFLIQYQESEKVGEAIVLTVPGSERSYDLTGLCPGTEYTVSIYGVHNVYKDTNMRGLPLSAIFTT | binds
24 | – | P54AR4-83v2 S30C, NEM conjugate (designed binder, NEM on Cys 30, His-tagged) LPAPKNLVVSEVTEDSARLSWDDPWAFYECFLIQYQESEKVGEAIVLTVPGSERSYDLTGLKPGTEYTVSIYGVHNVYKDTNMRGLPLSAIFTT | binds
25 | – | P54AR4-83v2 K40C, NEM conjugate (designed binder, NEM on Cys 40, His-tagged) LPAPKNLVVSEVTEDSARLSWDDPWAFYESFLIQYQESECVGEAIVLTVPGSERSYDLTGLKPGTEYTVSIYGVHNVYKDTNMRGLPLSAIFTT | binds
26 | – | P54AR4-83v2 G64C, NEM conjugate (designed binder, NEM on Cys 64, His-tagged) LPAPKNLVVSEVTEDSARLSWDDPWAFYESFLIQYQESEKVGEAIVLTVPGSERSYDLTGLKPCTEYTVSIYGVHNVYKDTNMRGLPLSAIFTT | binds
27 | binds | P54AR4-83v2 T81C, NEM conjugate (designed binder, NEM on Cys 81, His-tagged) LPAPKNLVVSEVTEDSARLSWDDPWAFYESFLIQYQESEKVGEAIVLTVPGSERSYDLTGLKPGTEYTVSIYGVHNVYKDCNMRGLPLSAIFTT | –
28 | – | P54AR4-83v2 T68C, NEM conjugate (designed binder, NEM on Cys 68, His-tagged) LPAPKNLVVSEVTEDSARLSWDDPWAFYESFLIQYQESEKVGEAIVLTVPGSERSYDLTGLKPGTEYCVSIYGVHNVYKDTNMRGLPLSAIFTT | binds
29 | – | P54AR4-83v2 T59C, NEM conjugate (designed binder, NEM on Cys 59, His-tagged) LPAPKNLVVSEVTEDSARLSWDDPWAFYESFLIQYQESEKVGEAIVLTVPGSERSYDLCGLKPGTEYTVSIYGVHNVYKDTNMRGLPLSAIFTT | binds
30 | – | P54AR4-83v2 E53C, NEM conjugate (designed binder, NEM on Cys 53, His-tagged) LPAPKNLVVSEVTEDSARLSWDDPWAFYESFLIQYQESEKVGEAIVLTVPGSCRSYDLTGLKPGTEYTVSIYGVHNVYKDTNMRGLPLSAIFTT | binds
31 | – | P54AR4-83v2 N6C, NEM conjugate (designed binder, NEM on Cys 6, His-tagged) LPAPKCLVVSEVTEDSARLSWDDPWAFYESFLIQYQESEKVGEAIVLTVPGSERSYDLTGLKPGTEYTVSIYGVHNVYKDTNMRGLPLSAIFTT | binds
32 | – | P54AR4-83v2 S16C, NEM conjugate (designed binder, NEM on Cys 16, His-tagged) LPAPKNLVVSEVTEDCARLSWDDPWAFYESFLIQYQESEKVGEAIVLTVPGSERSYDLTGLKPGTEYTVSIYGVHNVYKDTNMRGLPLSAIFTT | binds
33 | – | P54AR4-83v2 I91C, NEM conjugate (designed binder, NEM on Cys 91, His-tagged; also called 191C) LPAPKNLVVSEVTEDSARLSWDDPWAFYESFLIQYQESEKVGEAIVLTVPGSERSYDLTGLKPGTEYTVSIYGVHNVYKDTNMRGLPLSACFTT | binds
34 | – | P54AR4-83v2 S89C, NEM conjugate (designed binder, NEM on Cys 89, His-tagged) LPAPKNLVVSEVTEDSARLSWDDPWAFYESFLIQYQESEKVGEAIVLTVPGSERSYDLTGLKPGTEYTVSIYGVHNVYKDTNMRGLPLCAIFTT | binds
35 | – | P54AR4-83v2 V8C, NEM conjugate (designed binder, NEM on Cys 8, His-tagged) LPAPKNLCVSEVTEDSARLSWDDPWAFYESFLIQYQESEKVGEAIVLTVPGSERSYDLTGLKPGTEYTVSIYGVHNVYKDTNMRGLPLSAIFTT | binds
36 | – | P54AR4-83v2 A90C, NEM conjugate (designed binder, NEM on Cys 90, His-tagged) LPAPKNLVVSEVTEDSARLSWDDPWAFYESFLIQYQESEKVGEAIVLTVPGSERSYDLTGLKPGTEYTVSIYGVHNVYKDTNMRGLPLSCIFTT | binds
